Laboratory results: PubChem BioAssay AID743458 (Peter MacCallum Cancer Centre, 2014)

Aim: 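Retest earlier hits with independent siRNAs per gene for restoring vorinostat sensitivity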 (follow-up of hits)
Cell system: human HCT116-VR colon cancer cells made resistant to vorinostat
Knock-down reagent: single siRNA or pool against human genes, 25 nM per single siRNA
Duration: about 72 h after transfection, including 24 h of drug
Treatment: vorinostat, 2.5 µM final, for 24 h
Measurement: 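Live-cell fluorescent viability and luminescent caspase 3/7 activity after vorinostat treatment, background subtracted, mean of duplicate plates, as fold change over mock-transfected wells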
Direction: viability relative to mock: higher = more living cells than mock; caspase activity relative to mock: higher = more apoptosis than mock
Call rule: 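Active means a reduced-viability or caspase-activation class, anything else inactive; classes could only be given to wells that looked healthy when left untreated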
The whole screen tested about 1,800 reagents; below is an unselected part. 732 of all reagents (41%) were called active. 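Calls are per siRNA reagent; a gene was deemed confirmed only if most of its four siRNAs scored.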 Reagents against one gene are numbered here.

gene knocked down,reagent no.,viability relative to mock,caspase activity relative to mock,viability hit class,caspase hit class,outcome
SCLY (selenocysteine lyase),1,0.9,1.08,no change,no change,inactive
SCLY (selenocysteine lyase),2,0.94,1.4,no change,no change,inactive
SCLY (selenocysteine lyase),3,0.82,3.32,no change,caspase activation,active
SCLY (selenocysteine lyase),4,0.53,6.14,reduced viability,caspase activation,active
SMR3B (submaxillary gland androgen regulated protein 3B),1,0.51,2.54,reduced viability,no change,active
SMR3B (submaxillary gland androgen regulated protein 3B),2,0.68,5.33,no change,caspase activation,active
SMR3B (submaxillary gland androgen regulated protein 3B),3,0.56,1.34,no change,no change,inactive
SMR3B (submaxillary gland androgen regulated protein 3B),4,0.86,1.04,no change,no change,inactive
CCDC126 (coiled-coil domain containing 126),1,0.91,1.06,no change,no change,inactive
CCDC126 (coiled-coil domain containing 126),2,0.64,4.54,no change,caspase activation,active
CCDC126 (coiled-coil domain containing 126),3,0.66,4.07,no change,caspase activation,active
CCDC126 (coiled-coil domain containing 126),4,0.87,1.08,no change,no change,inactive
PKLR (pyruvate kinase L/R),1,0.72,1.29,no change,no change,inactive
PKLR (pyruvate kinase L/R),2,0.92,1.01,no change,no change,inactive
PKLR (pyruvate kinase L/R),3,0.74,6.6,no change,caspase activation,active
PKLR (pyruvate kinase L/R),4,1.08,1.36,no change,no change,inactive
RBM42 (RNA binding motif protein 42),1,0.56,1.82,reduced viability,no change,active
RBM42 (RNA binding motif protein 42),2,0.64,0.7,no change,no change,inactive
RBM42 (RNA binding motif protein 42),3,0.52,1.84,reduced viability,no change,active
RBM42 (RNA binding motif protein 42),4,0.5,1.52,reduced viability,no change,active
TFAP2D (transcription factor AP-2 delta),1,0.71,2.8,no change,caspase activation,active
TFAP2D (transcription factor AP-2 delta),2,0.7,4.08,no change,caspase activation,active
TFAP2D (transcription factor AP-2 delta),3,0.79,1.27,no change,no change,inactive
TFAP2D (transcription factor AP-2 delta),4,0.64,3.68,no change,caspase activation,active
TRIM4 (tripartite motif containing 4),1,1,1.4,no change,no change,inactive
TRIM4 (tripartite motif containing 4),2,0.68,1.71,no change,no change,inactive
TRIM4 (tripartite motif containing 4),3,0.9,0.92,no change,no change,inactive
TRIM4 (tripartite motif containing 4),4,0.7,1.81,no change,no change,inactive
DCUN1D2 (defective in cullin neddylation 1 domain containing 2),1,0.8,2.13,no change,no change,inactive
DCUN1D2 (defective in cullin neddylation 1 domain containing 2),2,1.02,1.32,no change,no change,inactive
DCUN1D2 (defective in cullin neddylation 1 domain containing 2),3,0.92,0.97,no change,no change,inactive
DCUN1D2 (defective in cullin neddylation 1 domain containing 2),4,0.81,0.92,no change,no change,inactive
DCUN1D2 (defective in cullin neddylation 1 domain containing 2),5,1.06,4.65,no change,caspase activation,active
DDX19B (DEAD-box helicase 19B),1,0.4,3.84,reduced viability,caspase activation,active
DDX19B (DEAD-box helicase 19B),2,0.34,3.3,reduced viability,caspase activation,active
DDX19B (DEAD-box helicase 19B),3,0.56,5.08,reduced viability,caspase activation,active
DDX19B (DEAD-box helicase 19B),4,0.28,4.03,reduced viability,caspase activation,active
RWDD2A (RWD domain containing 2A),1,1.08,1.21,no change,no change,inactive
RWDD2A (RWD domain containing 2A),2,0.78,4.64,no change,caspase activation,active
RWDD2A (RWD domain containing 2A),3,0.82,2.98,no change,caspase activation,active
RWDD2A (RWD domain containing 2A),4,0.82,3.13,no change,caspase activation,active
RPL7L1 (ribosomal protein L7 like 1),1,0.73,2.17,no change,no change,inactive
RPL7L1 (ribosomal protein L7 like 1),2,0.55,1.73,reduced viability,no change,active
RPL7L1 (ribosomal protein L7 like 1),3,0.2,1.8,no change,no change,inactive
RPL7L1 (ribosomal protein L7 like 1),4,0.25,2.01,no change,no change,inactive
SMARCD2 (SWI/SNF related BAF chromatin remodeling complex subunit D2),1,0.85,0.91,no change,no change,inactive
SMARCD2 (SWI/SNF related BAF chromatin remodeling complex subunit D2),2,0.86,0.99,no change,no change,inactive
SMARCD2 (SWI/SNF related BAF chromatin remodeling complex subunit D2),3,0.81,1.64,no change,no change,inactive
SMARCD2 (SWI/SNF related BAF chromatin remodeling complex subunit D2),4,0.8,0.88,no change,no change,inactive
PLAAT5 (phospholipase A and acyltransferase 5),1,0.94,1.5,no change,no change,inactive
PLAAT5 (phospholipase A and acyltransferase 5),2,0.76,4.29,no change,caspase activation,active
PLAAT5 (phospholipase A and acyltransferase 5),3,0.87,1.26,no change,no change,inactive
PLAAT5 (phospholipase A and acyltransferase 5),4,0.78,1.17,no change,no change,inactive
ZNF629 (zinc finger protein 629),1,0.81,1.63,no change,no change,inactive
ZNF629 (zinc finger protein 629),2,0.88,0.98,no change,no change,inactive
ZNF629 (zinc finger protein 629),3,0.26,3.66,reduced viability,caspase activation,active
ZNF629 (zinc finger protein 629),4,0.76,1.44,no change,no change,inactive

Laid out differently: entries from further up
gene knocked down	reagent no.	viability relative to mock	caspase activity relative to mock	viability hit class	caspase hit class	outcome
RBM42 (RNA binding motif protein 42)	4	0.5	1.52	reduced viability	no change	active
TFAP2D (transcription factor AP-2 delta)	1	0.71	2.8	no change	caspase activation	active
TFAP2D (transcription factor AP-2 delta)	2	0.7	4.08	no change	caspase activation	active
TFAP2D (transcription factor AP-2 delta)	3	0.79	1.27	no change	no change	inactive
TFAP2D (transcription factor AP-2 delta)	4	0.64	3.68	no change	caspase activation	active
